# Results: the supplement of paper PMC10849652
# Protein sequences, listed by entry. Tags and fused reporters are not part of them. Lines headed by an entry give the natural chain unless they say otherwise; changes in a name come on top.
# UniProt Q99986: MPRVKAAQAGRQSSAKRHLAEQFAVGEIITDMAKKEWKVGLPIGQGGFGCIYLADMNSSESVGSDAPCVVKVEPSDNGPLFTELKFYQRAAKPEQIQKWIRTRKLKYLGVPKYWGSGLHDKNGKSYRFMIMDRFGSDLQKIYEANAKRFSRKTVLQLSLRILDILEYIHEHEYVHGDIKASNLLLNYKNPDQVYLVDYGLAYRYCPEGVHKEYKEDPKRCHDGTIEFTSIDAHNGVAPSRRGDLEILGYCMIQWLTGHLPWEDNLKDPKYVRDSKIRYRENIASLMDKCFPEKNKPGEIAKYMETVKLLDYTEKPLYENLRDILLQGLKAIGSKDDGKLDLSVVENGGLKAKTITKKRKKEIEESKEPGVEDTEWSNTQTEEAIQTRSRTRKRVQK
# UniProt Q9H6Y2: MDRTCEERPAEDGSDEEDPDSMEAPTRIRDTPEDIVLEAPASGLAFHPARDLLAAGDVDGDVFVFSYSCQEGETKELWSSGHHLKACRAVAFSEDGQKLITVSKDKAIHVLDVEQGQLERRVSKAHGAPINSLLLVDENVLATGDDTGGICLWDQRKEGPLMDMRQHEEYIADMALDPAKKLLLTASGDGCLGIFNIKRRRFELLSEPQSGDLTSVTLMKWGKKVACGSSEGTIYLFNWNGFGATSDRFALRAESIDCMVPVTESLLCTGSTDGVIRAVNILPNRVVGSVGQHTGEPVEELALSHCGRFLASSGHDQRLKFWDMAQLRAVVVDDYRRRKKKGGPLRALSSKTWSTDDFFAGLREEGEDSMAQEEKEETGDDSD
# UniProt Q9UNX4: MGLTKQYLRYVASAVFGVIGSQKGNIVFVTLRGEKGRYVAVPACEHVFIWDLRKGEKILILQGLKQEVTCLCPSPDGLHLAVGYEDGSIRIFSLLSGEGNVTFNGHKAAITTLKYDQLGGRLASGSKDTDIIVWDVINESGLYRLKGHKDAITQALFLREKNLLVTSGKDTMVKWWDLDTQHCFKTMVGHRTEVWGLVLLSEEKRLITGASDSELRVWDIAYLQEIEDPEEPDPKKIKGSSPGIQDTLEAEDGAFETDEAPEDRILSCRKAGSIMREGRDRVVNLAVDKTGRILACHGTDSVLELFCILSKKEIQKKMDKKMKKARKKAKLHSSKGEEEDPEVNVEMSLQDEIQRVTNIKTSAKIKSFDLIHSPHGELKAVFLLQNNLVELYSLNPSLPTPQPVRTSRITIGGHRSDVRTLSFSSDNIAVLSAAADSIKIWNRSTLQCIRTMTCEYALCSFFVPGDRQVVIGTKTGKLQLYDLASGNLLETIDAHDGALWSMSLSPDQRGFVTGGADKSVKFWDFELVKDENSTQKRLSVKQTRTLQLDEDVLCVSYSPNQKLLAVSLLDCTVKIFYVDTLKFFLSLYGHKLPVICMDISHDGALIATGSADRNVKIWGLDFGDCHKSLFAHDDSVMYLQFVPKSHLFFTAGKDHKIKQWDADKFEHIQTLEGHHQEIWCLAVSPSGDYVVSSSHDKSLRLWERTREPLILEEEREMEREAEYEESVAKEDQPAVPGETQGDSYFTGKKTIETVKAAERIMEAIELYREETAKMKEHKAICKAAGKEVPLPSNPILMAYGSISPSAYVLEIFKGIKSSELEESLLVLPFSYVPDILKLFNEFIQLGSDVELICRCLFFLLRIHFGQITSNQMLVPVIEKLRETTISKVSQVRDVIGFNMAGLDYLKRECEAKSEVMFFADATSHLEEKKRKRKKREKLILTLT
# UniProt O43516: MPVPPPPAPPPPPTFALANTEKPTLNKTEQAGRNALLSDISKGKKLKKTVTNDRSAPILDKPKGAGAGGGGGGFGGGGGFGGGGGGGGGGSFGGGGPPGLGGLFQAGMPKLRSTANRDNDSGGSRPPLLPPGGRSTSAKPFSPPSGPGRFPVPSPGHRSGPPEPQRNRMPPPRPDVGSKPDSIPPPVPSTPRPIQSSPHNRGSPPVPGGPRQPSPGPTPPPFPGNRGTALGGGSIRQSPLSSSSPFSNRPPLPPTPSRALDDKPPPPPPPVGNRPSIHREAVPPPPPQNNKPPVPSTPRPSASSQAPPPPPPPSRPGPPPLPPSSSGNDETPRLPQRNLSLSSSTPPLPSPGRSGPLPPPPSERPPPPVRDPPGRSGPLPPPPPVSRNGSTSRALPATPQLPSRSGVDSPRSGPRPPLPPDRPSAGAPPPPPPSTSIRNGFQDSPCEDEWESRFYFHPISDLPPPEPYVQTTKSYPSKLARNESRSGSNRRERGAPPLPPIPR
# UniProt Q8TBZ3: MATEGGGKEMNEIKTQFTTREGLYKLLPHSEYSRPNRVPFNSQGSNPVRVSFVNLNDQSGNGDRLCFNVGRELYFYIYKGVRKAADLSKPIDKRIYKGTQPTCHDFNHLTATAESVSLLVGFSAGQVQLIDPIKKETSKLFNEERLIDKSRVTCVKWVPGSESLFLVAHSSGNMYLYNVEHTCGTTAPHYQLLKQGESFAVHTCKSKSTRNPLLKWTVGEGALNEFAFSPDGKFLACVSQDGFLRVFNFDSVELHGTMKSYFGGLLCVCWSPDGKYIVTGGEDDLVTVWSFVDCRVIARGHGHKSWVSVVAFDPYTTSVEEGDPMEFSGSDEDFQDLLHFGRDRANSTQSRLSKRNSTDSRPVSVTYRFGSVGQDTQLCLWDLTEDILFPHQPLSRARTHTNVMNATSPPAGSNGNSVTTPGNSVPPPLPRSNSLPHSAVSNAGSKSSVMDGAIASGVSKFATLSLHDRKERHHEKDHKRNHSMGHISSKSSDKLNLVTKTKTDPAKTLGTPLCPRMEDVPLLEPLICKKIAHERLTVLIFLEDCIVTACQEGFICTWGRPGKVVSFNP
# UniProt Q5MNZ6: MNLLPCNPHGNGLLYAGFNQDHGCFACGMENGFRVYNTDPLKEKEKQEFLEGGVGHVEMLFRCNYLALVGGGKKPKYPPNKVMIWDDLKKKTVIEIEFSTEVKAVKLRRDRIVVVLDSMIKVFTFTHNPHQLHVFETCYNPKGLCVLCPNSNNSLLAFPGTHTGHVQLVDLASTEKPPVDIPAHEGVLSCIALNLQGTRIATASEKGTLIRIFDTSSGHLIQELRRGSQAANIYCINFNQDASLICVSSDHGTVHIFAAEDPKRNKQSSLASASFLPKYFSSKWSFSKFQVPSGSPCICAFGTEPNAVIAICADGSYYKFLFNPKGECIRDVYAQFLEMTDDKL
# UniProt Q96S55: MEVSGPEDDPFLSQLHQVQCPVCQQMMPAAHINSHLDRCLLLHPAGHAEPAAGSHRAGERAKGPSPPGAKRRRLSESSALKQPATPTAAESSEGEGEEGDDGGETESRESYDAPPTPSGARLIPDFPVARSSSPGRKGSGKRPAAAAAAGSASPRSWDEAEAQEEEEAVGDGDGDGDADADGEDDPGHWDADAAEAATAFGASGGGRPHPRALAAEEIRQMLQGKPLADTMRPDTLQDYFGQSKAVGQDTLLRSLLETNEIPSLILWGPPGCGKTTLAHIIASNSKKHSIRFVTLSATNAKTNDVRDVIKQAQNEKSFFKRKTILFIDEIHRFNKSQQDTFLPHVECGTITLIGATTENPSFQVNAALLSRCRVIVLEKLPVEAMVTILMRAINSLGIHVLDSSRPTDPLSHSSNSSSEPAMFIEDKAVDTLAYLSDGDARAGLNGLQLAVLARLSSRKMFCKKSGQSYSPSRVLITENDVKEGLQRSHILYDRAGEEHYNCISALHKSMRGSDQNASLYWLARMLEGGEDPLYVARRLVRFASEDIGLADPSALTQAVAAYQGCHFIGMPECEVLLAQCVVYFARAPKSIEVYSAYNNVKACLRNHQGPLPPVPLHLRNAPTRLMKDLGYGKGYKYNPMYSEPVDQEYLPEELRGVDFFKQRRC
# UniProt Q01831: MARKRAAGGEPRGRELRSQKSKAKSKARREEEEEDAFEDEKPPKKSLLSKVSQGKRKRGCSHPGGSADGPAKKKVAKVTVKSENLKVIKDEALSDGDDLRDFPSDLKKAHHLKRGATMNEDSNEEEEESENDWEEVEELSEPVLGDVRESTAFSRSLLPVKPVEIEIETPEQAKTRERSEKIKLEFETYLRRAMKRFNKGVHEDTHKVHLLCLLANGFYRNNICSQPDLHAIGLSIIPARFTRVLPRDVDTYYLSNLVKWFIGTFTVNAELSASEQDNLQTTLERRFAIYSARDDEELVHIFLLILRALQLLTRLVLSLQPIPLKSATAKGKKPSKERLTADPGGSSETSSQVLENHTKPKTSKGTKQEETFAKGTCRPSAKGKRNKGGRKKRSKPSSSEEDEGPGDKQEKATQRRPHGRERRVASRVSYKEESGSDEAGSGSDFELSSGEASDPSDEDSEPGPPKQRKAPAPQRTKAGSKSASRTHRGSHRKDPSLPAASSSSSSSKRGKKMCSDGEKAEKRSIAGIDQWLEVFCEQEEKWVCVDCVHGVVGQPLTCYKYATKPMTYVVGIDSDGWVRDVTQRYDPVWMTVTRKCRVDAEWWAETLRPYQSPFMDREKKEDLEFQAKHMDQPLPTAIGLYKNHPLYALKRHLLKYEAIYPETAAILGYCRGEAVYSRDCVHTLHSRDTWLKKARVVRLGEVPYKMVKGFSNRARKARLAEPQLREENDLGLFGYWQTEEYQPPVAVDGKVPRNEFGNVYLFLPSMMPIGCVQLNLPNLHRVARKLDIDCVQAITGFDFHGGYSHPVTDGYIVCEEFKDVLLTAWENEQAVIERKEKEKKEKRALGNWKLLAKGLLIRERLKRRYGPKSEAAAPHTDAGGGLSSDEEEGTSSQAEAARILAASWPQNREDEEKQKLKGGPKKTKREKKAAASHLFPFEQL
# UniProt Q9NNW5: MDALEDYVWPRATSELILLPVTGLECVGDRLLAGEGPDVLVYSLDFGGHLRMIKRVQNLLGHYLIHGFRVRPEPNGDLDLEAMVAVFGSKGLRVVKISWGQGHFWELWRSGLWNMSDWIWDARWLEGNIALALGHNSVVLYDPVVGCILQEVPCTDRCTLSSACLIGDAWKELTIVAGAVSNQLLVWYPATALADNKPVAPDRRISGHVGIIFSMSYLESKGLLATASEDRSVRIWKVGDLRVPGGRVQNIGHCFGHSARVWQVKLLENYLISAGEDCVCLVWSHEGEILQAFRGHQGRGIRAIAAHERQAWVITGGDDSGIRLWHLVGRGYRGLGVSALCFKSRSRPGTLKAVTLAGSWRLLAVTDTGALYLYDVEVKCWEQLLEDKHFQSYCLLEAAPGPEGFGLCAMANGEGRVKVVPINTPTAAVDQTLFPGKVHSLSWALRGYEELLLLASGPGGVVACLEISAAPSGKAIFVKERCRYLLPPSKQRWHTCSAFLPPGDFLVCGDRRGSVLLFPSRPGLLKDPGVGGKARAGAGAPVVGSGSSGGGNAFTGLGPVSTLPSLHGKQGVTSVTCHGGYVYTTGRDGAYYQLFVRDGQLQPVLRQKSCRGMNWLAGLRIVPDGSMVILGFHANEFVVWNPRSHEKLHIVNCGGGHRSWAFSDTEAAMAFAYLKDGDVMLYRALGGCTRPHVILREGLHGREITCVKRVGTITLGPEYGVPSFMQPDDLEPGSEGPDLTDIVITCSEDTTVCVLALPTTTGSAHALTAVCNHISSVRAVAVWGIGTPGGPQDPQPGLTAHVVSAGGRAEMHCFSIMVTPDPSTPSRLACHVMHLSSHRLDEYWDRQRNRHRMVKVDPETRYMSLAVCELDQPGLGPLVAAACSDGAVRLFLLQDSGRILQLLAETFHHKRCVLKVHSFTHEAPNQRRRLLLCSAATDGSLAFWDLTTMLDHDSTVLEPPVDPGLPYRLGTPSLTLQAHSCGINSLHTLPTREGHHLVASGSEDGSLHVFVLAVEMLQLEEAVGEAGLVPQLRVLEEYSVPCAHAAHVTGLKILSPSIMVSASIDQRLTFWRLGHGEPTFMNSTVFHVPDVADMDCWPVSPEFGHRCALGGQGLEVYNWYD
# UniProt Q9H6R7: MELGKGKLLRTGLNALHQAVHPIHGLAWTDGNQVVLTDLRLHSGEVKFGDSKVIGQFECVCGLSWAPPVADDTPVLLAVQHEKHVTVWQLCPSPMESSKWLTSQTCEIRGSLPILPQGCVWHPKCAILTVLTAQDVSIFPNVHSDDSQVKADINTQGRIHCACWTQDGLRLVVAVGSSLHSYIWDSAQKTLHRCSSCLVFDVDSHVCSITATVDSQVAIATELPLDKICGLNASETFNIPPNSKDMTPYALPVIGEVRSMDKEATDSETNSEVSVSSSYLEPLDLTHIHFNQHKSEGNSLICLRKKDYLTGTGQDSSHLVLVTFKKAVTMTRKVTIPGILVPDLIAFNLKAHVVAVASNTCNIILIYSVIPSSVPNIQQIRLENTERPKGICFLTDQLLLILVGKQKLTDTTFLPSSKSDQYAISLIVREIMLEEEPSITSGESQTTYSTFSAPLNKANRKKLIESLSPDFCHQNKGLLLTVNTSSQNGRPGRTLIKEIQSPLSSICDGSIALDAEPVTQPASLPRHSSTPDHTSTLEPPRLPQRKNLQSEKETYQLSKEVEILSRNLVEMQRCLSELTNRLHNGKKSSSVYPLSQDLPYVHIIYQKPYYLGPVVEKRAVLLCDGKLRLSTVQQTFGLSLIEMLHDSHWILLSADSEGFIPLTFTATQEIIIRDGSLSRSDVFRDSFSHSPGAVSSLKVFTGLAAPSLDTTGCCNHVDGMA
# Some of the results follow.
# Compound: CC1=C2C(=CC=C1)N=C(N(C2=O)C3=CC=CC=C3C)CN4C=NC5=C(N=CN=C54)N
# Test: log2 fold change, soluble protein after heating vs DMSO (PISA); higher = thermal stabilisation; K562 lysate, 10 uM; active = over 0.2 and 3.5 SD of the protein, either way, in both replicates (recomputed)
# Method in brief: (§1)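 Thermal stability, expressed as log-two fold change relative to solvent controls, is given from duplicates. Crude K562 extract in PBS pH 7.4 with 1 mM MgCl2, at 1 mg/mL protein, was treated with 10 μM compound for 30 min and heated in aliquots for 3 min across 48°C-58°C. After pooling, adjustment to 0.5% NP-40 at 4°C and centrifugation at 21,000xg for 90 min, supernatant protein was measured by TMTpro 16plex LC-MS/MS with channel sums equalised.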
row,Target,log2 fold change
1,WASHC4 (UniProt Q2M389),inactive: -0.001
2,VRK1 (UniProt Q99986),inactive: 0.023
3,"WDR26, A0A499FIZ0",inactive: 0.003
4,WDR55 (UniProt Q9H6Y2),inactive: -0.006
5,WDR3 (UniProt Q9UNX4),inactive: 0.006
6,WIPF1 isoform 3 (UniProt O43516),inactive: -0.005
7,WDR20 isoform 7 (UniProt Q8TBZ3),inactive: 0.035
8,WDR45B (UniProt Q5MNZ6),inactive: -0.039
9,WRNIP1 (UniProt Q96S55),inactive: 0.024
10,XPC (UniProt Q01831),inactive: -0.068
11,WASHC5 (UniProt Q12768),inactive: 0.009
12,VPS25 (UniProt Q9BRG1),inactive: 0.027
13,WASF1 (UniProt Q92558),inactive: -0.086
14,WDR6 (UniProt Q9NNW5),inactive: 0.008
15,WDCP (UniProt Q9H6R7),inactive: -0.04

# Compound: Cc1sc2c(c1C)C(c1ccc(Cl)cc1)=N[C@@H](CC(=O)OC(C)(C)C)c1nnc(C)n1-2
# Test: as above
# Method in brief: as §1
row,Target,log2 fold change
1,VPS28 (UniProt Q9UK41),inactive: 0.073
2,VPS35 (UniProt Q96QK1),inactive: -0.009
3,VPS13A (UniProt Q96RL7),inactive: 0.049
4,WIPF2 (UniProt Q8TF74),inactive: -0.011
5,WDR24 (UniProt Q96S15),inactive: 0.002
6,VPS26B (UniProt Q4G0F5),inactive: -0.03
7,WDR13 (UniProt Q9H1Z4),inactive: 0.047
8,VPS8 (UniProt Q8N3P4),inactive: -0.038
9,WDTC1 (UniProt Q8N5D0),inactive: -0.017
10,WNK1 isoform 7 (UniProt Q9H4A3),inactive: -0.074
11,WASH2P (UniProt Q6VEQ5),inactive: 0.012
12,WDR70 (UniProt Q9NW82),inactive: 0.002
13,WDR47 (UniProt O94967),inactive: 0.01
14,VPS45 (UniProt Q9NRW7),inactive: -0.004
15,WDR7 (UniProt Q9Y4E6),inactive: 0.029
16,"VKORC1L1, A0A3B3ISV4",inactive: -0.018
17,WDR75 (UniProt Q8IWA0),inactive: -0.018
18,WARS (UniProt P23381),inactive: 0.026
19,VPS51 (UniProt Q9UID3),inactive: 0.025
20,VIRMA (UniProt Q69YN4),inactive: -0.025

row,Target,log2 fold change
1,VRK3 (UniProt Q8IV63),inactive: -0.049
2,VPS4B (UniProt O75351),inactive: 0.035
3,VMA21 (UniProt Q3ZAQ7),inactive: 0.042
4,WDR5 (UniProt P61964),inactive: 0.07
5,WASHC4 (UniProt Q2M389),inactive: -0.019
6,VRK1 (UniProt Q99986),inactive: -0.005
7,"WDR26, A0A499FIZ0",inactive: 0.009
8,WDR55 (UniProt Q9H6Y2),inactive: -0.034
9,WDR3 (UniProt Q9UNX4),inactive: -0.014
10,WIPF1 isoform 3 (UniProt O43516),inactive: 0.072
11,WDR20 isoform 7 (UniProt Q8TBZ3),inactive: -0.176
12,WDR45B (UniProt Q5MNZ6),inactive: -0.007
13,WRNIP1 (UniProt Q96S55),inactive: 0.016
14,XPC (UniProt Q01831),inactive: 0.025
15,WASHC5 (UniProt Q12768),inactive: 0.001
16,VPS25 (UniProt Q9BRG1),inactive: 0.009
17,WASF1 (UniProt Q92558),inactive: -0.011
18,WDR6 (UniProt Q9NNW5),inactive: -0.021
19,WDCP (UniProt Q9H6R7),inactive: 0.049

# Compound: c1ccc([C@@H]2C[C@H]2NC2CCNCC2)cc1
# Test: as above
# Method in brief: as §1
row,Target,log2 fold change
1,VPS28 (UniProt Q9UK41),inactive: 0
2,VPS35 (UniProt Q96QK1),inactive: 0.031
3,VPS13A (UniProt Q96RL7),inactive: 0.045
4,WIPF2 (UniProt Q8TF74),inactive: -0.054
5,WDR24 (UniProt Q96S15),inactive: -0.024
6,VPS26B (UniProt Q4G0F5),inactive: -0.064
7,WDR13 (UniProt Q9H1Z4),inactive: 0.032
8,VPS8 (UniProt Q8N3P4),inactive: 0.01
9,WDTC1 (UniProt Q8N5D0),inactive: 0.069
10,WNK1 isoform 7 (UniProt Q9H4A3),inactive: 0.018
11,WASH2P (UniProt Q6VEQ5),inactive: 0.008
12,WDR70 (UniProt Q9NW82),inactive: 0.014
13,WDR47 (UniProt O94967),inactive: -0.041
14,VPS45 (UniProt Q9NRW7),inactive: -0.001
15,WDR7 (UniProt Q9Y4E6),inactive: -0.027
16,"VKORC1L1, A0A3B3ISV4",inactive: -0.036
17,WDR75 (UniProt Q8IWA0),inactive: 0.04
18,WARS (UniProt P23381),inactive: 0.03
19,VPS51 (UniProt Q9UID3),inactive: 0.08
20,VIRMA (UniProt Q69YN4),inactive: 0.005

row,Target,log2 fold change
1,VRK3 (UniProt Q8IV63),inactive: 0.044
2,VPS4B (UniProt O75351),inactive: 0.067
3,VMA21 (UniProt Q3ZAQ7),inactive: -0.037
4,WDR5 (UniProt P61964),inactive: -0.215
5,WASHC4 (UniProt Q2M389),inactive: 0.01
6,VRK1 (UniProt Q99986),inactive: 0.034
7,"WDR26, A0A499FIZ0",inactive: -0.018
8,WDR55 (UniProt Q9H6Y2),inactive: -0.004
9,WDR3 (UniProt Q9UNX4),inactive: 0.056
10,WIPF1 isoform 3 (UniProt O43516),inactive: -0.098
11,WDR20 isoform 7 (UniProt Q8TBZ3),inactive: -0.124
12,WDR45B (UniProt Q5MNZ6),inactive: -0.104
13,WRNIP1 (UniProt Q96S55),inactive: 0.06
14,XPC (UniProt Q01831),inactive: 0.022
15,WASHC5 (UniProt Q12768),inactive: 0
16,VPS25 (UniProt Q9BRG1),inactive: 0.105
17,WASF1 (UniProt Q92558),inactive: -0.092
18,WDR6 (UniProt Q9NNW5),inactive: -0.013
19,WDCP (UniProt Q9H6R7),inactive: 0.025
